# Source: PubChem BioAssay AID1347423 (Functional Genomics Laboratory (NCATS/FGL), 2020)
# Out of some 52,000 sequences screened, about 210 (0.4%) were called active.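 How the source made its calls: active means gene whose silencing raises cell survival under the drug, median off-target-corrected z-score across its silencing RNAs 2 or more; inactive means the rest.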 The list shows a part of the results.
# Assay: Resistance to Poly (ADP-Ribose) Polymerase inhibitor: Gene Identification via Genome-wide siRNA Screen
# Settings: mouse BRCA2 R2336H ES cells, olaparib, CellTiter-Glo viability; stronger effect = higher value
# In short: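 Mouse BRCA2 R2336H ES cells were reverse-transfected with siRNA (20 nM final), treated at 48 h with 500 nM olaparib, and read by CellTiter-Glo after 72 h. Scores: MAD-based z per siRNA, median per gene, seed off-target correction.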
row,Sequence,z-score
1,GGGAAAUGUUUUCCAAAGATT against Tep1,inactive: 0.921
2,GGGAAAACAGGUACGACUGTT against Odf1,inactive: 0.805
3,GGACUUCUACACCUCGAAATT against X83328,inactive: 0.341
4,GGAAGUUCUACACUCGUCUTT against Fzd2,inactive: 0.0921
5,GGCUGUGAUCUCCUGGCUUTT against B830028P19Rik,inactive: -0.0956
6,CCCUCUGAACUAUAUGACUTT against Olfr700,inactive: -0.627
7,GCAUAUCGCUUUUGUGAGCTT against E2f6,inactive: 1.06
8,CCAGGAAAUUCGUGCAUGATT against Rutbc1,inactive: -2.31
9,CCUGGUUUACAUGUACGGGTT against Tap2,inactive: -0.756
10,GGCUAUUUGAAAACCAACUTT against 2310001A20Rik,inactive: -0.0353
11,CCUCUGUGUUAUUUUGCAUTT against Pgm2,inactive: 1.61
12,GGUGGAUUUCUAUGUUCAATT against 2410043F08Rik,inactive: -1
13,GAAUCUUACCCUCUUUCUCTT against Olfr541,inactive: 0.176
14,GGAACAUUUUGAGAUUUACTT against Abca5,inactive: 2.8
15,GGACCAUUCAUGGACUAGCTT against Mtap7,inactive: 0.657
16,GCAGUUUUAUAAUCCUAGUTT against Tceb3,inactive: 0.508
17,CCUCUAUUCUCCGUCUAUGTT against Fars1,inactive: 0.313
18,GGUCCGGUGAAAGGAUUUUTT against Spag11,inactive: -0.331
19,GGAUCUUCUCUGCCUAUAUTT against Arpc1b,inactive: -3.47
20,GGUCGCUGUGAAAAUAAUATT against Mark1,inactive: -0.927
21,GGAUGAGGGCGACUACUUUTT against Thy1,inactive: -0.617
22,GGAAAGUGGACACCUUCCATT against AI854408,inactive: -1.04

row,Sequence,z-score
1,GGUCAAUCAGUUAUAAGCUTT against 5430413I02Rik,inactive: 1.24
2,GGGUGAUUUCUUGAGUACATT against 1200009I06Rik,inactive: 0.0539
3,GGCCAUUUUUCUAGUGCUUTT against 1110038F14Rik,inactive: -0.859
4,GCGUAGAGUCCUUUCGUCUTT against Krt1-10,inactive: -0.936
5,GCUGAUGGUAUAAAAGUAGTT against Glud1,inactive: -0.789
6,GCACUUUAAUCUGGCUACCTT against Dnmt3b,inactive: -1.11
7,GGUGGAAGGACUUACAAUCTT against Ptgds2,inactive: 0.347
8,GGAUAUCCACAGAAAUCAATT against 1200002N14Rik,inactive: 1.71
9,GCUGAUUAACCCUCAGUAUTT against Gpc6,inactive: -1.23
10,GGUAGUGUCUGUAUUCUACTT against Olfr508,inactive: 0.0277
11,GCCAGUUCUAGAAAUACCATT against 8430429K09Rik,inactive: -0.101
12,CCCAAAACGGUAGCUUAAGTT against Chc1,inactive: 0.0857
13,GGAAAGGUGUAUUCUUAAUTT against Bhlhb5,inactive: -0.617
14,CCACUUUCGCUUUACCAAUTT against C330011M18Rik,inactive: 0.267
15,GGAGGUCCAGCUGUUCAUGTT against Kcnn4,inactive: 2.89
16,GGAGGUUAUGUUUAAAACUTT against Dnchc1,inactive: -1.11
17,GGUAUGUUGGAAAGUCUUUTT against 5730577I03Rik,inactive: -1.7
18,GUAGAGUGAUGAGAGGCCUTT against V1rc4,inactive: 0.244
19,GCCUCCACAUAAGAAGCUGTT against 1600019O04Rik,inactive: 0.757
20,CCUAGCUAUGCUUUUGGCATT against Fkbp4,inactive: 1.41
21,GCCCGUAUAGGUAUUGGUCTT against Mpg,inactive: -1.36
22,GGUAAUUAUCUUGUUGUCATT against Sacm1l,inactive: 0.438

row,Sequence,z-score
1,GGGACAAAUUGUCCAAAUGTT against Trpc4ap,inactive: 0.907
2,GCAAAUCACCUACAAAAACTT against Zfp326,inactive: 0.526
3,GGAAAUGAGAGCAUCCAUUTT against Cndp2,inactive: 0.189
4,GCUUUUUCUCUUUGCACUGTT against Olfr826,inactive: -0.363
5,GUCUAUCUUCAGCACAAACTT against Klrc3,inactive: 0.128
6,GGCAUAUAUACAUGCCUGCTT against V1ri2,inactive: 0.309
7,GGAAACUUAUCCCUACUCATT against Tal2,inactive: 0.322
8,GGAUAUUAUGUCUUUGCUATT against 2810417D08Rik,inactive: -1.53
9,CGGAUAUUUACGAACUUACTT against Pitpnb,inactive: 0.466
10,GGGCUUGGAGAGAAAACCATT against Rnut1,inactive: 1.74
11,GGGAGCCAUUUUUACAGACTT against Gpr120,inactive: -0.477
12,GGCCAUCCGCAUUUUUUCCTT against Rkhd3,inactive: 0.51
13,GUGCUCUAUGUCUUCACUGTT against Ltb4r2,inactive: -0.287
14,GCACGGAAUUGUUGAGCUGTT against Maff,inactive: -0.469
15,ACGACCUAUACCUCAGACCTT against Cebpd,inactive: -0.35
16,GCACAUGCCAUACAACCAUTT against Fads1,inactive: 0.615
17,GGAACAGAAAUUCUAUGAGTT against D830007E07Rik,inactive: 0.946
18,GCUGGAAAGUAGUUCAGUGTT against 4930583K01Rik,inactive: 0.992
19,CCACAUCAAGCAGAAAGUCTT against MGC118309,inactive: 0.258
20,GGGAUAAAUAUGAAGAAAGTT against Tacc2,inactive: 0.0585
21,GCAGUGUUUAGAGAGUUAUTT against Ngep,inactive: 0.423
22,GGCCAUUAACCAGUCUAUCTT against Mucdhl,inactive: -1.75

# No new results follow: an excerpt of the list.
row,Sequence,z-score
18,GCUGGAAAGUAGUUCAGUGTT against 4930583K01Rik,inactive: 0.992
19,CCACAUCAAGCAGAAAGUCTT against MGC118309,inactive: 0.258
20,GGGAUAAAUAUGAAGAAAGTT against Tacc2,inactive: 0.0585
21,GCAGUGUUUAGAGAGUUAUTT against Ngep,inactive: 0.423
